# Several values for one entry are separate records, joined by “and”; a condition that tells them apart may be missing. Identical values can stand only once. The list shows a part of the results.
# By UniProt entry, the sequences of proteins in these tests, tags left out.
# UniProt P03372, whole entry: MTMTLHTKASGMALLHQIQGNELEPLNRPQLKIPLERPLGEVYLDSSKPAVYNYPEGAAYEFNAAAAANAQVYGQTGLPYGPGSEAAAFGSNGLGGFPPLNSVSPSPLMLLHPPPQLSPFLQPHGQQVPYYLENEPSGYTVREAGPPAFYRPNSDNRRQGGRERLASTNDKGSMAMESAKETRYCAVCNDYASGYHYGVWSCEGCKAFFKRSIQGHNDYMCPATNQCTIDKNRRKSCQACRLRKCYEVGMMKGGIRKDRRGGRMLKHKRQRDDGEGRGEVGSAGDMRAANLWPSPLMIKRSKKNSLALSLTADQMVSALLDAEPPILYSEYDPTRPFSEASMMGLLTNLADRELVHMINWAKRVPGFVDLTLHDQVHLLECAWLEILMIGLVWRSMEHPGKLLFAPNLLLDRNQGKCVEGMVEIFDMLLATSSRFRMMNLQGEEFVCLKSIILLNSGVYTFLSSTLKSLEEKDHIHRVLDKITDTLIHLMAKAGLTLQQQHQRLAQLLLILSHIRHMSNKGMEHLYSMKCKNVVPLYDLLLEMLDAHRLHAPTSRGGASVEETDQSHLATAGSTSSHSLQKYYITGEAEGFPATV
# Target: Estrogen receptor (Homo sapiens) (UniProt P03372)
# Assay: ERα coactivator peptide binding inhibitors, primary screen, biochemical, LOPAC library, TR-FRET (AID 694);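 note: receptor was agonist-bound with estradiol present during the assay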
# Conditions: TR-FRET ERalpha-coactivator peptide binding, at 15 µM, stronger effect = higher value
row,SMILES,inhibition
1,CN(C(=O)Cc1ccccc1)[C@@H]1CC[C@]2(CCCO2)C[C@H]1N1CCCC1,-0.81%
2,CN(C(=O)Cc1ccc(Cl)c(Cl)c1)[C@@H]1CC[C@]2(CCCO2)C[C@H]1N1CCCC1,-0.75%
3,CN(C(=O)Cc1ccc(Cl)c(Cl)c1)[C@@H]1CCCC[C@H]1N1CCCC1,2.44%
4,CN(CCCl)Cc1cc(Cl)c(NC2=NCCN2)c(Cl)c1,2.07%
5,CC(Cc1ccc(O)cc1)NCC(O)c1cc(O)cc(O)c1 (configuration not stated),6.47%
6,CN(C(=O)Cc1ccc(Cl)c(Cl)c1)[C@H]1CCCC[C@@H]1N1CCCC1,-3.57% and 1.15%
7,CN(C(=O)Cc1ccc(Cl)c(Cl)c1)[C@@H]1CCCC[C@@H]1N1CCCC1,-5.72%

# Reference: PubChem BioAssay AID694 (Emory University Molecular Libraries Screening Center, 2007)
